Results: patent publication US20070099232

Columns and labels:
[1] = system: BtEcR/BtUSP heterodimer (Bemisia tabaci); experiment: EMSA; settings: greatly enhanced by Mg2+ (5 mM MgCl2); enhanced by ponasterone A when added before probe; competed by excess unlabelled EcRE; room temperature; protein translated in vitro; label: 32P (Klenow fill-in)
[2] = system: BtUSP (Bemisia tabaci); experiment: EMSA; settings: USP alone does not bind as homodimer; protein translated in vitro; label: 32P (Klenow fill-in)

“AGCTTCAAGGGTTCAATGCACTTGTCCATCG / AGCTCGATGGACAAGTGCATTGAACCCTTGA [hsp27 EcRE]”: binds [1]; no binding [2].

Construct, isoform or probe ends are uncertain for at least one entry. For some assays here: No signal at the amounts used counts as a negative.
